Results as given in paper PMC11272581.
No constants are given. Whether binding was seen depends on the method and setting. Binding seen in cells or lysates may run through a third protein. Some binding calls cover weakened binding; strength is not graded here.

Protein sequences, listed by entry. Tags and fused reporters are not part of them.
UniProt Q92922: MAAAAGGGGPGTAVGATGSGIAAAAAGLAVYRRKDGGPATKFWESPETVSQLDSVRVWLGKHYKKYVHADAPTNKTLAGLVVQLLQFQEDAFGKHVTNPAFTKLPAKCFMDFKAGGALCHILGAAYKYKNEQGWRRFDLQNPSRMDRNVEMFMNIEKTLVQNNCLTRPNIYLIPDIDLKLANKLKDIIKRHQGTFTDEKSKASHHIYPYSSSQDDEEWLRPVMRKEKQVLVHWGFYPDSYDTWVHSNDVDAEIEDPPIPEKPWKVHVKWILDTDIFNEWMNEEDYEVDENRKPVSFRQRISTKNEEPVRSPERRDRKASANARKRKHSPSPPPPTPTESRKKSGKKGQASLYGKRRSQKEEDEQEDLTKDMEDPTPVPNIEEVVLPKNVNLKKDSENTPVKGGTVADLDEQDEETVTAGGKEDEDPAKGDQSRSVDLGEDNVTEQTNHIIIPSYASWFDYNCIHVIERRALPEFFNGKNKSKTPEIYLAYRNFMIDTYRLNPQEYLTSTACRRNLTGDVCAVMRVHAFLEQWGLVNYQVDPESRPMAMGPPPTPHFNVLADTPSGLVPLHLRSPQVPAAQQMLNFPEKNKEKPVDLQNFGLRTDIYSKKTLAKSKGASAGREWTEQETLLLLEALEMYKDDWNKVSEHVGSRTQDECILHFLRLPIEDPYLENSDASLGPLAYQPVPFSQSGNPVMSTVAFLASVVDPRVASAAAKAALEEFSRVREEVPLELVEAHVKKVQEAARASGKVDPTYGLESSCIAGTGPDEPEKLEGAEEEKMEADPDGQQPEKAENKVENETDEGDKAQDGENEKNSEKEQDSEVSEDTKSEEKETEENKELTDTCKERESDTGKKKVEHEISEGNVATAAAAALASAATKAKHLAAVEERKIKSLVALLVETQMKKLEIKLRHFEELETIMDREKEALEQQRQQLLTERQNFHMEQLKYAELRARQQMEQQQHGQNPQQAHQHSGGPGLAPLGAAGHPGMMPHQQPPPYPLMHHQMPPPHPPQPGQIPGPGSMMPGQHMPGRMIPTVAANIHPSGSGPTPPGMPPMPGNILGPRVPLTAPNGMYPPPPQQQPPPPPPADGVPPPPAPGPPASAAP
UniProt O95373: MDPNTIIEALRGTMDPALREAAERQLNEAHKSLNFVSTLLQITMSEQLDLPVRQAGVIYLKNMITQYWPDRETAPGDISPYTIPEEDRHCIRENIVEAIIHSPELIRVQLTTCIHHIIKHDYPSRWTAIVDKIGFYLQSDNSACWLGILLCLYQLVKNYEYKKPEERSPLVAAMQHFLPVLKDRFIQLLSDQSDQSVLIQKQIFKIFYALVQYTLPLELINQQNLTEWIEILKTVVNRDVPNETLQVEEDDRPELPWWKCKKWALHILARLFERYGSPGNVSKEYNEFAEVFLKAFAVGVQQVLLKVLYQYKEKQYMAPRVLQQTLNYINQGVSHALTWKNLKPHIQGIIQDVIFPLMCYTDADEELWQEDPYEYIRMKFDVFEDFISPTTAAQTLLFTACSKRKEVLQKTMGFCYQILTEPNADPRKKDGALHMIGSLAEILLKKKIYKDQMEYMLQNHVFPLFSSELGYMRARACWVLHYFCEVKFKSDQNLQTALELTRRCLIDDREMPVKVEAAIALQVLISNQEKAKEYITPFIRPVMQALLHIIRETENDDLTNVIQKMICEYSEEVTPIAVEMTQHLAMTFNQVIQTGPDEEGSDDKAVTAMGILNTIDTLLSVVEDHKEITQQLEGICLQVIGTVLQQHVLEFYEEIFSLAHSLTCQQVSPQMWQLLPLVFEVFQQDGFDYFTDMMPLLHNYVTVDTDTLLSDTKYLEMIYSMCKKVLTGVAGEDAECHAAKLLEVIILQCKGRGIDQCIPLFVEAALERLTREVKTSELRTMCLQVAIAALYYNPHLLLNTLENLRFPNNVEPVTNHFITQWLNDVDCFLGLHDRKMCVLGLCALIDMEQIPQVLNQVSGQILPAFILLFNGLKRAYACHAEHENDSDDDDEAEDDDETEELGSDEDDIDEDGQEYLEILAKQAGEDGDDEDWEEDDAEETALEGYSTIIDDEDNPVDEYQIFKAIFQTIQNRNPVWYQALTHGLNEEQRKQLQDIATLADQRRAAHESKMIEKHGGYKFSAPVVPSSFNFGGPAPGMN
UniProt Q12824: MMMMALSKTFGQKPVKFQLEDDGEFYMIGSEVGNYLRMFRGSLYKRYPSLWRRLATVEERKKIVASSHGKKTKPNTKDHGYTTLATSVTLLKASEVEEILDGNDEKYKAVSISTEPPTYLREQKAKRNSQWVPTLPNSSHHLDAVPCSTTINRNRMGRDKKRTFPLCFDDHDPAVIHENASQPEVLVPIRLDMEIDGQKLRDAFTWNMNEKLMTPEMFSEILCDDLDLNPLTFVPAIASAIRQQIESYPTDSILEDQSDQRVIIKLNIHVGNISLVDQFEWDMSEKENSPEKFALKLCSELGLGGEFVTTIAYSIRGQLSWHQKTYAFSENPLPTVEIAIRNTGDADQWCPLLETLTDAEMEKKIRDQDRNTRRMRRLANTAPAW
UniProt P04424: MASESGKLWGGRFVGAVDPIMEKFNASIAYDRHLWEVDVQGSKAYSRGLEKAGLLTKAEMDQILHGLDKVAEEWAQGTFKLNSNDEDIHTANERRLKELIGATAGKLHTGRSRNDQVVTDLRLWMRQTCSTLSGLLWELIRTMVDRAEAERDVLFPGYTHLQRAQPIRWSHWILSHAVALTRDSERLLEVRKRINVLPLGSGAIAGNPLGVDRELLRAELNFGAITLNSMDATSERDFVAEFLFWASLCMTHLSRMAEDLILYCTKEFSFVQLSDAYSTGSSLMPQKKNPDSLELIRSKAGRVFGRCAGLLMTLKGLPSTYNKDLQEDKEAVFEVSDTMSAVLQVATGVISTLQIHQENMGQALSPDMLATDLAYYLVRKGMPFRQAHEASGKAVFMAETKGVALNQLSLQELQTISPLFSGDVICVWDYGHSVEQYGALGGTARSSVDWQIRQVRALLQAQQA

Experiments:
[1] = target: SWI/SNF-related, matrix-associated, actin-dependent regulator of chromatin subfamily C member 1 (SMARCC1) (human (endogenous in HCT116)) (UniProt Q92922); test: co-IP; immunoprecipitation with anti-SMARCC1 or anti-SNF5 of the chromatin-bound fraction (MNase-released) of control and Dox-treated HCT116 ASS1-EV and ASS1-KO cells, immunoblotted for SNF5 or SMARCC1
[2] = target: SWI/SNF-related, matrix-associated, actin-dependent regulator of chromatin subfamily C member 1 (SMARCC1) (human (endogenous in HCT116)) (UniProt Q92922); test: proximity ligation; Duolink in situ PLA on fixed, permeabilised HCT116 cells (WT, ASS1-EV, ASS1-KO), control and Dox-treated; puncta counted in whole cells and nuclei
[3] = target: T1, argininosuccinate synthase (ASS1) (human (endogenous in HCT116)) (UniProt P00966); test: as above
T1 sequence: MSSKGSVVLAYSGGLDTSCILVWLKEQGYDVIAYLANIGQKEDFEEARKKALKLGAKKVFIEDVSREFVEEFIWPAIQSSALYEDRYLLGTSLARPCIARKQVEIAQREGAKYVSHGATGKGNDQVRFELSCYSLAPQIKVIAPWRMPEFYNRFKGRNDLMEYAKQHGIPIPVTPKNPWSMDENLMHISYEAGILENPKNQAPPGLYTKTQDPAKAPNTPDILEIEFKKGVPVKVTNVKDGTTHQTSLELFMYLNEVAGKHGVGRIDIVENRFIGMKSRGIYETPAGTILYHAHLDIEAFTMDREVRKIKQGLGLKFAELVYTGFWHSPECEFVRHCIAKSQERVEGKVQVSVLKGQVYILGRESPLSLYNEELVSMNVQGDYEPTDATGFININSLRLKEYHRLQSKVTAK

[4] = target: SWI/SNF-related, matrix-associated, actin-dependent regulator of chromatin subfamily C member 1 (SMARCC1) (human (endogenous in HCT116)) (UniProt Q92922); test: as above; remark: listed apart in the source
[5] = target: importin 7 (IPO7) (human (endogenous in HCT116)) (UniProt O95373); test: as above
[6] = target: importin 7 (IPO7) (human (endogenous in HCT116)) (UniProt O95373); test: co-IP; immunoprecipitation of IPO7 from the nuclear fraction of control and Dox-treated HCT116 WT cells, immunoblotted; Dynabeads Protein G

## SWI/SNF-related, matrix-associated, actin-dependent regulator of chromatin, subfamily B, member 5 (SNF5) (from UniProt Q12824 1-385)
[1]
  binding: binds

## argininosuccinate lyase (ASL) (from UniProt P04424 1-464) (enzyme)
[2]
  binding: binds
[3]
  binding: binds

B1: argininosuccinate synthase (ASS1) (enzyme, UniProt P00966 1-412)
chain: T1 sequence
[4]
  binding: binds
[5]
  binding: binds
[6]
  binding: binds
